± gives the standard deviation. The entries are a selection whose mix differs from that of the whole data set. The uncertainty is large for many entries.
System: MILI (PIWIL2) piRISC loaded with Kctd7 piRNA (26 nt)
Assay: pre-steady-state target cleavage rate (min^-1); MIWI and MILI are mouse PIWI proteins and EfPiwi is from a freshwater sponge; tags in brackets are library labels; higher = faster piRNA-guided slicing of the target
Conditions: guide: Kctd7 piRNA 5'p-UGUUAAUCUCUCAGAGAAGGUGACAG; auxiliary factor: 500 nM mouse GTSF1
Outline: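 Reactions were run for 0–8 or 0–960 min at 33 °C in HEPES–potassium acetate buffer, combining 1 nM active affinity-purified piRISC with one synthetic guide, […] transcribed, DNA-blocked target RNA library and, in some cases, 500 nM GTSF1 partner protein. Sequencing of uncleaved targets followed, with normalisation to depth and to weakly complementary targets. Three trials were pooled, k3 was capped at 0.0001 min^-1, and the pre-steady-state cleavage rate was taken from a burst-and-steady-state fit.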
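Note: 1 nM active piRISC with 0.1 nM target library at 33 °C single turnover.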

Row | Sequence | pre-steady-state target cleavage rate
1 | UAGUCUGUCACCUUCUCUGAGCAGAUUAACA | 0.00288 ± 0.0039
2 | UAGUGUGUCACCUUCUCUGAGAGUUUUACA | 0.14 ± 0.046
3 | UAGUGACAGUCCUUCUCUGUGUGAUUAACA | 0.00142 ± 0.0047
4 | UAGUGACUCACCUUCUCUCAGAGAUUAUGA | 0.00319 ± 0.0053
5 | UAGUGACACACGAUCUCUGAGAGAUUUUGA | 0.000303 ± 0.021
6 | UAGUGACAGUGGAAGUCUGGAGAUUAACA | 0.000157 ± 0.021
7 | UAGUGACAGUGGAAGACUGAGAGAUUAACC [g2:g14:cont:t1C] | 0.000426 ± 0.013
8 | UAGUGACAGUGGUUCUCUGAGUCAUUAACA | 0.00015 ± 0.022
9 | UAGUGACAGUGCUUCUCUGAGAGAUAUACA | 0.002 ± 0.0027
10 | UAGUGACAGUGGAAGACUGAGAGAUUCAACA | 0.000147 ± 0.038
11 | UAGUGACAGUGGAACUCUGACUGAUUAACA | 0.000173 ± 0.024
12 | UAGUGAGUCACGUUCUCUGAGAGAUUUUGA | 0.00363 ± 0.0042
13 | UAGUGACAGACCUUCAGAGAGAGAUUAAGA | 0.000558 ± 0.025
14 | UAGUGACAGACCUUCUCUCAGAGAAUAACA | 0.00135 ± 0.0095
15 | UAGUGACAGUGGAAGUCUGAGUCAUUAACA | 0.00033 ± 0.019
16 | UAGUGAGUCACCUUCUCUGCAGAGAUUAACA | 0.00349 ± 0.0052
17 | UAGUGACAGUCCUUGUCUGAGAGAUUUACA | 0.00298 ± 0.0054
18 | UAGUGACAGUGGAACUCUGAGACUUUAACA | 0.00207 ± 0.01
19 | UAGUGACAGUGGAAGAGACAGAGAUUCAACA | 0.000653 ± 0.011
20 | UAGUGACAGUGCUUCACUGAGAGAUAAACA | 0.00164 ± 0.0054
21 | UAGUGACACAGCUUCUCUGAGUGAUUAACA | 0.00187 ± 0.006
22 | UAGUGACUCACGAACUCUGAGAGAUUAACA | 0.000843 ± 0.0036

Row | Sequence | pre-steady-state target cleavage rate
23 | UAGUGUGUCACCUUCUCUGAGAGAUUGACA | 0.25 ± 0.063
24 | UAGUCUGUCUGCUUCUCUGAGAGAUUUUGA | 0.000439 ± 0.013
25 | UAGUGACUCACCUUCUGUGAGUGAUUAACA | 0.00145 ± 0.0072
26 | UAGUGUGUGACCUUCUCUGAGUGAUUAACA | 0.00169 ± 0.0075
27 | UAGUGACAGUCCUUCUCUGAGAGAUAAUGA | 0.000485 ± 0.011
28 | UAGUGAGUCACCAAGUCUGAGAGAUUUUGA | 0.000456 ± 0.022
29 | UAGUGACAGUCCUUCUCUGAGUGUUUAACA | 0.000165 ± 0.018
30 | UAGUGACUCACCUUCUCACUCUCUAAUUGA [g14:g23:cont:t1A] | 0.000289 ± 0.027
31 | UAGUCUGUCAGGUUCUCUGAGAGAUUUUGA | 0.000851 ± 0.0054
32 | UAGUGACUCACCUUCAGUGAGAGAUAUUGA | 0.0012 ± 0.008
33 | UAGUGAGUCACCUUCUCUGACUCAUUUUGA | 0.000844 ± 0.011
34 | UAGUGACUCUCCUUCUCUGAGAGAUAUUGA | 0.00144 ± 0.0053
35 | UAGUGACUGUGCUUCUCUGAGAGAUUUUGA | 0.000437 ± 0.014
36 | UAGUGACAGUGCUUCUCUCAGAGAUUAAGA | 0.00117 ± 0.0065
37 | UAGUGACAGUGGAACAUCUGAGAGAUUAACA | 0.0011 ± 0.0034
38 | UAGUGACAGUGGAAGUCUGACAGAUUAACA | 0.000132 ± 0.021
39 | UAGUGACAGUGCUUCUCUGAGAGUAUAACA | 0.000271 ± 0.0092
40 | UAGUGACACACCUUCUGACAGAGAUUUUGA | 0.00102 ± 0.0099
41 | UAGUGACAGUGCUUCUCUAGAGAUUAACA | 0.000839 ± 0.0071
42 | UAGUGACAGAGGUUCUCUGAGAGAUUAUGA | 0.000798 ± 0.0064
43 | UAGUGACACACCUUCUCAGAGUGAUUAACA | 0.00281 ± 0.0059
44 | UAGUGACAGUGGUUCUCUGCGAGAUUAACA | 0.000986 ± 0.0062

Row | Sequence | pre-steady-state target cleavage rate
45 | UAGUGACAGUGGAAGACUGAGAGUAUUAACA | 0.000179 ± 0.015
46 | UAGUGACAGUGCUUCUCUGAGCGAUUAACA | 0.000991 ± 0.0047
47 | UAGUGACAGUGCUUCACUGAGUGAUUAACA | 0.00348 ± 0.0037
48 | UAGUGACAGUCCAUCUCUGAGAGAUUAUGA | 0.000383 ± 0.017
49 | UAGUGUGUCACCUUCUCUGAGAGUAAAACA | 0.194 ± 0.057
50 | UAGUGACAGACCAUCUCAGAGAGAUUAACA | 0.00328 ± 0.0046
51 | UAGUGACAGUCCUUCUCUGAGAGAUAUAGA | 0.000348 ± 0.014
52 | UAGUCUGUGACGUUCUCUGAGAGAUUAACA | 0.147 ± 0.01
53 | UAGUGACAGUGCUUCUCGUGAGAGAUUAACA | 0.000602 ± 0.013
54 | UAGUGACAGUGGAAGAGUGAGAAUUAACA | 0.000179 ± 0.051
55 | UAGUGACAGUGGAACUCUGAGAGUUAAACA | < 0.0001
56 | UAGUCUGUCACCUUCUCUGACUCAUUAACA | 0.00126 ± 0.0043
57 | UAGUGACAGUGGAACUCUGAGAAGAUUAACA | 0.00026 ± 0.032
58 | UAGUGACAGUGGAAGAGUGAGAGAUCUAACA | 0.000122 ± 0.058
59 | UAGUGACAGUCCUUCUCUCAGUGAUUAACA | 0.00226 ± 0.0031
60 | UAGUGAGUCUCCUUCACUGAGAGAUUAACA | 0.166 ± 0.016
61 | UAGUGACAGACCUUCUCUGAGAGAAAAACA | 0.00247 ± 0.0064
62 | UAGUGACAGUCCUUCACUCAGAGAUUAACA | 0.0024 ± 0.0053
63 | UAGUGACAGACCUUCUCUGAGAGAUAUUGA | 0.000859 ± 0.011
64 | UAGUCUGUCACCUUCUCUGAGAGAUUAAAA | 0.12 ± 0.031
65 | UAGUGACAGACCUUCUGUGAGAGAUUUUGA | 0.00229 ± 0.0065
66 | UAGUGACUCACCUUCUCUGAGUCUUUAACA | 0.00062 ± 0.014

Nothing new here: an excerpt of the list.
Row | Sequence | pre-steady-state target cleavage rate
64 | UAGUCUGUCACCUUCUCUGAGAGAUUAAAA | 0.12 ± 0.031
65 | UAGUGACAGACCUUCUGUGAGAGAUUUUGA | 0.00229 ± 0.0065

Additional results follow.

Row | Sequence | pre-steady-state target cleavage rate
67 | UAGUGACAGUGGAAGACUGAAAGAUUAACA | 0.000113 ± 0.026
68 | UAGUGACACACCUUCUCCUGAGAGAUUAACA | 0.00434 ± 0.0049
69 | UAGUGACAGUGGAACUCUGAGACAUAAACA | 0.00122 ± 0.017
70 | UAGUGACAGUGGAUCACUGAGAGAUUAACA | 0.000355 ± 0.006
71 | UAGUCUGUCACGUUCUCUGAGAGAUAUUGA | 0.000974 ± 0.007
72 | UAGUGACAGUCCUUCUCUGAGAGAUUUAGA | 0.0011 ± 0.006
73 | UAGUGACAGUCCUUCUCUGAGAGUUUUACA | 0.00041 ± 0.015
74 | UAGUGACAGUCCUUCUCUGGAGAGAUUAACA | 0.000138 ± 0.019
75 | UAGUGAGUCACCUUCUCUGAGAGAUUAACC [g2:g24:cont:t1C] | 0.192 ± 0.018
76 | UAGUGACAGUGGAACUCUGAAAGAUUAACA | 0.00117 ± 0.015
77 | UAGUGACAGUCCUACUCUGAGACAUUAACA | 0.000705 ± 0.0043
78 | UAGUGACAGUGGAAGAGAGAGAGUUUAUCA | 0.000169 ± 0.053
79 | UAGUGACACACCUUGUCUGAGAGAUUUUGA | 0.000586 ± 0.017
80 | UAGUGAGUCACCUUCCUGAGAGAUUAACA | 0.119 ± 0.038
81 | UAGUGACAGUGGAAGUCUGAGAGAUUGAACA | 0.00019 ± 0.014
82 | UAGUGACAGUGGAAGACUGAGCGAUUAACA | 0.000201 ± 0.031
83 | UAGUCUGUCAACCUUCUCUGAGAGAUUAACA | 0.0716 ± 0.011
84 | UAGUGACUCACCUUCUCUGACUCAUUAUGA | 0.000148 ± 0.03
85 | UAGUGACUCACCAACUCUGAGAGAUUAUGA | 0.002 ± 0.0054
86 | UAGUGAGUCACCUUCUUCUGAGAGAUUAACA | 0.0918 ± 0.028

Looked up above:
pre-steady-state target cleavage rate, UAGUGAGUCACCUUCUCUGAGAGAUUAACC [g2:g24:cont:t1C] is entered as 0.192 ± 0.018
pre-steady-state target cleavage rate, UAGUGAGUCACCUUCUUCUGAGAGAUUAACA is entered as 0.0918 ± 0.028
